## Screening data, single-dose tests

The chains behind the UniProt entries cited, without tags or fusion partners.
UniProt P9WFT3, whole entry: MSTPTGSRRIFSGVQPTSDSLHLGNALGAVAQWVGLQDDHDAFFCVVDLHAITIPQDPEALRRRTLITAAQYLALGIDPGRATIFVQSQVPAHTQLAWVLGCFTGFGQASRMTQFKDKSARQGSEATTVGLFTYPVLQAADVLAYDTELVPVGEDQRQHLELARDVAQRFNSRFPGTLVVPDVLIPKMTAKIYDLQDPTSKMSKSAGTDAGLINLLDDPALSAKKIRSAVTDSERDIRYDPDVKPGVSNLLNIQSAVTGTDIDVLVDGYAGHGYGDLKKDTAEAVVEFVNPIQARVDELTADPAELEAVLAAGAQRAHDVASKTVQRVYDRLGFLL

Data taken from ChEMBL document CHEMBL3988442, “University of Dundee, Small-Polar-MMV Screening Library” (2021).

Values are the deposited “Percent Effect”, in %.
The record does not define 0% and 100%; most values in the screen are far below 50% and negative numbers occur (in some assays of this library far below -100).
The compounds are a random part of those screened.

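Enzyme assay of tryptophanyl-tRNA synthetase; the read-out is not stated. Target: Tryptophan-tRNA ligase, Mycobacterium tuberculosis (UniProt P9WFT3). Concentration: 10 µM. Direction is not recorded; retested compounds ran higher, which suggests that high means inhibition. About 65,000 compounds were tested under these conditions; 0.098% (about 64) showed 50% or more at least once.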

{"compound": "CC(C)Nc1nc2c(cc1C(=O)NCC1CC1)CCN(C)CC2", "percent effect": 6.345}
{"compound": "CC(NCc1ccco1)c1nnc2n1CCCC2", "stereo": "centres undefined", "percent effect": -3.835}
{"compound": "Cc1ccc(-n2ncc3c2CCCC3N)cc1C", "stereo": "centres undefined", "percent effect": 0.784}
{"compound": "Cc1ccc(NC(=O)NC(C)c2nc[nH]n2)cc1Cl", "stereo": "centres undefined", "percent effect": 2.199}
{"compound": "Cc1cc2n(n1)[C@@H](C(F)(F)F)C[C@@H](C1CCN(C(=O)C(C)C)CC1)N2", "percent effect": -1.333}
{"compound": "CCC1CCN(CCn2cnc3c(C)csc3c2=O)CC1", "percent effect": 7.81}
{"compound": "CCOCc1ncn2c1CN(C(=O)Nc1ccc(CC)cc1)CC2", "percent effect": 14.42}
{"compound": "COc1cccc(CNC[C@H]2COCc3nc4cccnc4n32)n1", "percent effect": 3.067}
{"compound": "CC(C)C(C(=O)NCc1ccccc1-n1cccn1)N(C)C", "stereo": "centres undefined", "percent effect": -2.178}
{"compound": "Cc1csc(CNC(=O)Cc2ccc3c(c2)OCCO3)n1", "percent effect": -4.15}
{"compound": "CSc1ncccc1C(=O)N(C)CCc1scnc1C", "percent effect": -5.416}
{"compound": "CC(C)n1ncc2c1NC(=O)CC21C(=O)Nc2c(Cl)ccc(Cl)c21", "stereo": "centres undefined", "percent effect": -1.751}
{"compound": "Cc1csc2c(N3CCNC(C(=O)NCc4cccnc4)C3)ncnc12", "stereo": "centres undefined", "percent effect": -1.932}
{"compound": "CC(C)c1cccc(-n2cc(O)c(C(=O)NCCCn3cccn3)n2)c1", "percent effect": 3.457}
{"compound": "CN(C)C(=O)CCC[S+]([O-])Cc1ccc(Cl)c(Cl)c1", "stereo": "centres undefined", "percent effect": 4.669}
{"compound": "CC(C)c1nn(C)c(N(C)C)c1CNC(C)c1ccccc1F", "stereo": "centres undefined", "percent effect": -1.363}
{"compound": "CNC(=O)c1cn[nH]c1C1(C)CCCN(CC2(O)CCCCC2)C1", "stereo": "centres undefined", "percent effect": -1.333}
{"compound": "O=C(NCc1cn2cccnc2n1)C1CC(=O)N(Cc2ccccn2)C1", "stereo": "centres undefined", "percent effect": -4.92}
{"compound": "CC(Oc1cccc(Cl)c1)C(=O)Nc1cnn(CCN(C)C)c1", "stereo": "centres undefined", "percent effect": 3.695}
{"compound": "COC(=O)CCNC(=O)c1cc(-c2ccc(OC)cc2)nn1C", "percent effect": -0.2427}
{"compound": "CCCNc1ncc(C2CC(=O)NCc3nc4ccccn4c32)cn1", "stereo": "centres undefined", "percent effect": 1.944}
{"compound": "CN(C)Cc1ccccc1Cn1cncc1-c1cnn(C)c1", "percent effect": -5.065}
{"compound": "O=C(Nc1cnc(Oc2ccccc2)nc1)C1CC1", "percent effect": -4.787}
{"compound": "c1csc(-c2nc(CNC3CCc4ncnn4C3)cs2)c1", "stereo": "centres undefined", "percent effect": 1.559}
{"compound": "CN(C)C(C(=O)N1CCSCC1)c1ccccc1F", "stereo": "centres undefined", "percent effect": 0.6463}
{"compound": "CC(C)c1sc(Cl)nc1C(=O)N1CCN(Cc2ccccc2)CC1", "percent effect": 2.576}
{"compound": "COc1nc2c(cc1C(=O)NC(C)Cc1cc(C)n[nH]1)CCC2", "stereo": "centres undefined", "percent effect": 3.843}
{"compound": "CCc1nc(C(=O)NCc2ccc(N3CCNC(=O)C3)c(F)c2)c[nH]1", "percent effect": 4.721}
{"compound": "O=c1oc(-c2ccc(F)cc2)nn1CN1CCN(C2CCCC2)CC1", "percent effect": 0.5596}
{"compound": "CC(C)NC(=O)c1sc2ccccc2c1[C@H]1CC[C@H](CN)CC1", "percent effect": -3.329}
{"compound": "Nc1ncccc1CN1C[C@@H](C(=O)O)[C@H](c2cccc(F)c2)C1", "percent effect": 1.817}
{"compound": "CCc1nc(NCCCOC)c2c(n1)c(C)nn2C", "percent effect": 1.206}
{"compound": "CCc1noc(CC)c1CNC(=O)Nc1ccc2[nH]nnc2c1", "percent effect": 3.027}
{"compound": "CN(C)C1(CNC(=O)C/C=C/c2ccc(F)cc2)CCOCC1", "percent effect": 17.12}
{"compound": "CC(NC(=O)NCCCc1n[nH]c(N)c1C#N)c1cccs1", "stereo": "centres undefined", "percent effect": 7.474}
{"compound": "CNC(=O)C1(C)CCCN1Cc1cnn(C)c1C", "stereo": "centres undefined", "percent effect": -2.108}
{"compound": "CN(C)C(=O)N1Cc2ccccc2C2(CCN(C3CCOCC3)CC2)C1", "percent effect": -3.476}
{"compound": "c1ccc(CN2Cc3nccn3CC(Cn3cncn3)C2)nc1", "stereo": "centres undefined", "percent effect": 3.946}
{"compound": "COc1ccc(-n2cnnc2CC2CCNCC2)cc1", "percent effect": -3.602}
{"compound": "COCCN(Cc1ccc(F)cc1Cl)C(=O)c1ccncc1", "percent effect": -2.275}
{"compound": "O=C(CSc1ccc2c(c1)OCCO2)NS(=O)(=O)c1ccccc1", "percent effect": -2.493}
{"compound": "Cc1ccc(N2C(=O)N[C@@H]3CCN(C(=O)C4CCCC4)[C@@H]3C2=O)cc1", "percent effect": 2.786}
{"compound": "CN(CCCNC(=O)CN1CCS(=O)(=O)CC1)c1ccccc1", "percent effect": -2.624}
{"compound": "N#Cc1ccccc1N1CCN(C(=O)NCC(=O)N2CCCC2)CC1", "percent effect": -4.617}
{"compound": "Cc1nc(C)n(CC2CCCCN2Cc2cn3ccccc3n2)n1", "stereo": "centres undefined", "percent effect": -0.8939}
{"compound": "CSc1ccccc1C(C(=O)O)N1CCN(Cc2ccccn2)CC1", "stereo": "centres undefined", "percent effect": 1.587}
{"compound": "Cc1ccc2cccc(S(=O)(=O)N(C)CC3CCN(C)C3)c2n1", "stereo": "centres undefined", "percent effect": 5.243}
{"compound": "CC(=O)N(c1ccc(F)cc1)c1nc(CN2CCCC2C(C)C)cs1", "stereo": "centres undefined", "percent effect": 1.282}
{"compound": "CCc1cc(CNC(=O)Nc2cc(F)ccc2N2CCCCC2)on1", "percent effect": 3.461}
{"compound": "Cc1ccc(N2CCC(c3cc(Cc4ccccc4)n[nH]3)CC2)nn1", "percent effect": 3.673}
{"compound": "Cc1cc2c(cc1CNC(Cc1cccs1)c1nccs1)OCO2", "stereo": "centres undefined", "percent effect": -8.431}
{"compound": "Cc1nc2c(c(NCC(c3ccccc3C)N(C)C)n1)CCNC2", "stereo": "centres undefined", "percent effect": -3.226}
{"compound": "Cc1cc(C2CCCN2C(=O)CN2CC3(CCNCC3)OC2=O)on1", "stereo": "centres undefined", "percent effect": -4.661}
{"compound": "O=C(Cc1csc(-c2ncccn2)n1)N1CCN2CCCCC2C1", "stereo": "centres undefined", "percent effect": 7.123}
{"compound": "COc1ncccc1CNC(=O)N1CCC(CNC(C)=O)CC1", "percent effect": 0.7819}
{"compound": "CCOCC1CN(CC2CC2)Cc2cnn(C)c21", "stereo": "centres undefined", "percent effect": -3.21}
{"compound": "Cc1cnc(CNC(=O)CCCn2cnc3ccccc3c2=O)cn1", "percent effect": 1.489}
{"compound": "COc1cc(Cl)ccc1C(=O)NCC(=O)Nc1nccs1", "percent effect": -0.1875}
{"compound": "O=c1[nH]c2c(-c3ccccn3)nsc2c(=O)n1CC1CC1", "percent effect": 0.4454}
{"compound": "COCCCNC(=O)C(C)n1nc(-c2ccco2)cc(N)c1=O", "stereo": "centres undefined", "percent effect": -2.891}

The last 5 entries again:

- CCOCC1CN(CC2CC2)Cc2cnn(C)c21 (centres undefined) : -3.21%
- Cc1cnc(CNC(=O)CCCn2cnc3ccccc3c2=O)cn1 : 1.489%
- COc1cc(Cl)ccc1C(=O)NCC(=O)Nc1nccs1 : -0.1875%
- O=c1[nH]c2c(-c3ccccn3)nsc2c(=O)n1CC1CC1 : 0.4454%
- COCCCNC(=O)C(C)n1nc(-c2ccco2)cc(N)c1=O (centres undefined) : -2.891%